Data as given in PubChem BioAssay AID1259254 (NCATS, 2017).

Assay: 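Finding genes that stop cells copying their DNA twice in one cycle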 (primary screen)
System: human HCT116 colorectal cancer cells
Reagent: single siRNA against human genes
Time to read-out: 3 days
Read-out: 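Imaged Hoechst DNA stain sorts each cell into a cycle phase by DNA amount; per plate, G2 fraction set to 0% for non-targeting and 100% for GMNN siRNA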
Reading the numbers: G2 robust z-score and G2 cells, % of GMNN control: higher = more G2 cells, more excess DNA replication; raw share of cells in G2: higher = larger share of cells with G2 DNA content
Active means: 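Active siRNAs have a G2 robust z of 5 or more median absolute deviations over the median, which in these data means about 38% or higher of GMNN control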
Shown is a random part of about 59,000 reagents. Of all reagents, about 1,550 (2.6%) were called active. 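G2 share is only a proxy for re-replication; each gene was hit by three separate siRNAs, and active genes were retested.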 Raw values are not corrected between plates. Reagents against one gene are numbered here. Not given: the amount of reagent.

Gene	siRNA no.	G2 robust z-score	G2 cells, % of GMNN control	raw share of cells in G2 (%)	Call
CD5L	1	0.203	4.39	6.6	inactive
CD5L	2	-0.224	1.39	4.57	inactive
CD5L	3	-0.237	1.3	5.43	inactive
CARMIL3	1	-0.22	1.42	3.38	inactive
CARMIL3	2	-0.793	-2.61	2.97	inactive
CARMIL3	3	2	17	8.33	inactive
UPK2	1	1.22	11.6	10.3	inactive
UPK2	2	0.204	4.4	5.64	inactive
UPK2	3	-0.275	1.04	3.71	inactive
NSDHL	1	0.579	7.04	9.15	inactive
NSDHL	2	-0.779	-2.51	3.32	inactive
NSDHL	3	-0.586	-1.15	3.36	inactive
TMEM177	1	-0.12	2.12	5.33	inactive
TMEM177	2	-0.587	-1.16	3.8	inactive
TMEM177	3	2.96	23.8	8.89	inactive
NCOA3	1	-0.624	-1.43	5	inactive
NCOA3	2	-0.0946	2.3	5.23	inactive
NCOA3	3	0.335	5.32	6.24	inactive
MXRA8	1	-1.41	-6.92	1.13	inactive
MXRA8	2	-0.365	0.397	4.44	inactive
MXRA8	3	-0.692	-1.9	2.56	inactive
MRPL17	1	-0.285	0.959	5	inactive
MRPL17	2	5.07	38.7	21.9	active
MRPL17	3	0.255	4.76	3.95	inactive
DOCK1	1	0.643	7.49	7.73	inactive
DOCK1	2	-0.43	-0.0609	4.08	inactive
DOCK1	3	0.342	5.37	6.88	inactive
CEP89	1	0.521	6.63	6.9	inactive
CEP89	2	1.25	11.7	6.68	inactive
CEP89	3	0.667	7.66	5.35	inactive
LETR1	1	-0.641	-1.54	3.25	inactive
LETR1	2	-0.747	-2.29	2.61	inactive
LETR1	3	-1.15	-5.11	2.67	inactive
MCRIP2	1	-0.792	-2.6	1.62	inactive
MCRIP2	2	-1.23	-5.69	2.21	inactive
MCRIP2	3	-0.16	1.84	4	inactive
ADGRG4	1	0.828	8.79	8.99	inactive
ADGRG4	2	0.538	6.75	6.88	inactive
ADGRG4	3	0.533	6.72	5.33	inactive
ATP6V0E2	1	0.939	9.57	7.03	inactive
ATP6V0E2	2	1.71	15	7.98	inactive
ATP6V0E2	3	-0.482	-0.425	2.63	inactive
SNIP1	1	-0.839	-2.93	3.23	inactive
SNIP1	2	-0.704	-1.98	3.44	inactive
SNIP1	3	-0.317	0.735	2.58	inactive

In a second layout: results already given
Gene | siRNA no. | G2 robust z-score | G2 cells, % of GMNN control | raw share of cells in G2 (%) | Call
ADGRG4 | 2 | 0.538 | 6.75 | 6.88 | inactive
ADGRG4 | 3 | 0.533 | 6.72 | 5.33 | inactive
ATP6V0E2 | 1 | 0.939 | 9.57 | 7.03 | inactive
ATP6V0E2 | 2 | 1.71 | 15 | 7.98 | inactive
ATP6V0E2 | 3 | -0.482 | -0.425 | 2.63 | inactive

The listing continues:
Gene	siRNA no.	G2 robust z-score	G2 cells, % of GMNN control	raw share of cells in G2 (%)	Call
FAM168A	1	-0.36	0.432	3.34	inactive
FAM168A	2	0.26	4.79	6.86	inactive
FAM168A	3	0.786	8.5	7.64	inactive
WDR11	1	0.0485	3.31	5.8	inactive
WDR11	2	0.381	5.65	6.48	inactive
WDR11	3	-0.891	-3.3	2.08	inactive
PHF1	1	-0.024	2.8	4.57	inactive
PHF1	2	-0.204	1.53	5.56	inactive
PHF1	3	1.09	10.6	6.97	inactive
FBXO48	1	0.353	5.45	5.73	inactive
FBXO48	2	0.0726	3.48	4.74	inactive
FBXO48	3	1.99	17	8.89	inactive
GCG	1	2.72	22.1	11.5	inactive
GCG	2	-0.55	-0.905	4.91	inactive
GCG	3	6.87	51.3	24.8	active
VCAN	1	-0.708	-2.01	2.66	inactive
VCAN	2	0.427	5.97	7.64	inactive
VCAN	3	-0.154	1.88	3.79	inactive
MAP2K7	1	-0.135	2.01	6.27	inactive
MAP2K7	2	0.201	4.38	6.89	inactive
MAP2K7	3	3.92	30.6	14.8	inactive
STXBP3	1	0.801	8.6	8.95	inactive
STXBP3	2	-0.529	-0.755	3.6	inactive
STXBP3	3	-0.913	-3.46	2.13	inactive
